Results are given in words; binding and its absence hold for the method and conditions named. Binding can be weak; no strength is given.
Target: Ape's ERBB2 (poly-histidine tagged) (Ape)
Test: ELISA, coated antigen, HRP-conjugated antibody, OD 450 nm

B1: Hersintuzumab (antibody, V domains shown)
VH: EVKLVESGGGLVKPGGSLRLSCATSGFSFSSYYMYWVRQAPGKRLEWVAYISSGSEIYYSDSVKGRFTISRDSAKNTLYLQMNSLRAEDTAVYYCARLGDDGMDVWGQGTTVTVSS
VL: DIVMTQSPSSLSASVGDRVTITCRASQNVRTAVAWFQQKPGKAPKALIYLASNRHTGVPDRFTGSGSGTEFTLTISNLQPEDFATYFCLQHNSYPLTFGGGTKVEIK
notes: also called humanized anti-HER2 antibody; humanized monoclonal anti-HER2 antibody
binding: binds
